In PubChem BioAssay AID1347423 (Functional Genomics Laboratory (NCATS/FGL), 2020):
Among all 52,000 sequences or so, about 210 (0.4%) were called active.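 The calls were made as follows: active = gene whose silencing raises cell survival under the drug, median off-target-corrected z-score across its silencing RNAs 2 or more; inactive = the rest.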 This is one part of the list.

Experiment: Resistance to Poly (ADP-Ribose) Polymerase inhibitor: Gene Identification via Genome-wide siRNA Screen
Conditions: mouse BRCA2 R2336H ES cells, olaparib, CellTiter-Glo viability; active compounds read high
In short: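 Genome-wide siRNA screen (3 siRNAs/gene, 20 nM) in mouse ES cells carrying hypomorphic BRCA2 R2336H; olaparib 500 nM added 48 h post-transfection, CellTiter-Glo viability 72 h later. Normalized to plate-median negative control; MAD z-scores, gene median, seed-adjusted.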

Row | Sequence | z-score
1 | GCCGGGCAAUGAAUUUACUTT against Ms4a5 | inactive: 2.39
2 | CCCUGAAGUGUAACUUCAATT against BC055811 | inactive: 0.103
3 | GGAGACUCAUCCAAUAAAUTT against V2r1b | inactive: -0.0936
4 | GGCAAUUCUCUGUAUCCACTT against LOC223706 | inactive: -0.0335
5 | GCCCUUGAAGAUCAUUAGCTT against 2810443J12Rik | inactive: -0.0762
6 | CCCUAAGUCCGUUAAUGUUTT against Wdhd1 | inactive: 0.00913
7 | CGCAGCCUUUACCUCCGAATT against BC052360 | inactive: 0.543
8 | CCUAAACUACAGGAAUUUATT against D830014E11Rik | inactive: 0.81
9 | CCCACAGUUCUGAAGGGAGTT against Olfr1215 | inactive: 0.58
10 | GGUACUGGAAAGAAAUGAGTT against Slac2b | inactive: 0.68
11 | CGAUUUUCCUCAAUAUCUCTT against Pcdhgc4 | inactive: 0.352
12 | GGGACCAGAACAAAUACAATT against Klc3 | inactive: -0.49
13 | AGUAUGGCAAAAGGGAACATT against LOC435565 | inactive: 0.643
14 | CCAUUCGAUACCUCGUGCATT against Dhps | inactive: 2.72
15 | GGUUCUACCUCAAGAUGUUTT against Srd5a2 | inactive: -1.13
16 | GCAGCUAAAACAAGUUUGATT against Sntg2 | inactive: 0.0958
17 | GGACCUUCGGAAUGACGAGTT against Rhoa | inactive: -1.69
18 | GGAGAGAUGAGAUUUUUCATT against E130016E03Rik | inactive: 1.83
19 | GCAUACCGGAUAAACUGAATT against Apoc1 | inactive: 2.23
20 | CCGCGUGACCAACUUUGUGTT against Map3k7ip1 | inactive: 0.606
21 | GGAAAGACAGAAUAAUCCATT against Sparc | inactive: 0.00144
22 | GGAUAGUGUGGUUUUAUAUTT against BC004701 | inactive: -0.0842
23 | GCAAGAACGCAAGAUUCAATT against Acoxl | inactive: 1.12
24 | CGUAUUGGUGGGAGAAAGATT against Parva | inactive: -0.65
25 | GGUAGAAGAAUGCAUAAUGTT against Sema3e | inactive: 1.59
26 | GGUGACAAGGAGAAAGAUGTT against Rnf151 | inactive: -0.269

Another view of some results above:
Row,Sequence,z-score
2,CCCUGAAGUGUAACUUCAATT against BC055811,inactive: 0.103
3,GGAGACUCAUCCAAUAAAUTT against V2r1b,inactive: -0.0936
4,GGCAAUUCUCUGUAUCCACTT against LOC223706,inactive: -0.0335

Part of the list above, in markdown:

| Row | Sequence | z-score |
| --- | --- | --- |
| 12 | GGGACCAGAACAAAUACAATT against Klc3 | inactive: -0.49 |
| 13 | AGUAUGGCAAAAGGGAACATT against LOC435565 | inactive: 0.643 |
| 14 | CCAUUCGAUACCUCGUGCATT against Dhps | inactive: 2.72 |

The results go on.

Row | Sequence | z-score
27 | GGGCCUAUGUGCUUUAUAUTT against Usp8 | inactive: -2.31
28 | GGAUUCUGAAGAAAACGGGTT against Ibsp | inactive: 0.482
29 | CCUACUCUCUCGUAGACUCTT against MGC69750 | inactive: -1.37
30 | GGAGGCUUCUAUUGCCAUATT against Olfr380 | inactive: -0.0518
31 | GCUCAUUCCAGCAGUAAUGTT against Taf6 | inactive: 0.154
32 | GCGGUCACACCAAAAGUCATT against Olfr1466 | inactive: -0.337
33 | CGCCCAUCUACGUUUUUACTT against Neil1 | inactive: 0.328
34 | GCUACUCAUUUAGCAGAGATT against Olfr76 | inactive: -0.761
35 | GGCAUCGAUGAACUCUACUTT against A730013G03Rik | inactive: -1.91
36 | GGCAUUGACUAUGAGAUAGTT against Gstz1 | inactive: -0.236
37 | GGUUCCAUUCUUGUCACCCTT against Lifr | inactive: 1.12
38 | GGAGUUCAAGUAUACGUGUTT against Clic3 | inactive: 0.837
39 | GGAUCCGUAUUCAGAUUUATT against Nrk | inactive: -0.181
40 | GGGACAGUUUGGUGAAGGCTT against 3110045G13Rik | inactive: -1.08
41 | GGUACAAAUGCAUUGAGAGTT against Fcamr | inactive: -1.62
42 | GCGACAAUAUGAGUCACCUTT against MGC58341 | inactive: 0.491
43 | GGGUAGAUUGAUUGUUGGATT against LOC212871 | inactive: -1.21
44 | GGAAAUUCGUGCAUGAAGATT against Rutbc1 | inactive: -0.58
45 | CCAAUGAUGAAUCCCUUCATT against Olfr781 | inactive: -0.93
46 | GCCAUUCACUUAAUUCAGUTT against Hist1h2ae | inactive: 0.663
47 | GGGAGAUGGACAAGGUUACTT against AJ554213 | inactive: -0.609
48 | GGAGAAUGUGUAGCUGUGATT against 9230102I19Rik | inactive: -1.59
49 | GCCACUGGAGUAUAGCCAGTT against Pcnxl3 | inactive: 0.527
50 | GGGAACUGUUCAAAAAGACTT against D1Bwg0212e | inactive: -0.0995
51 | GGUAUUUAGAAACAUCAGUTT against 5031439A09Rik | inactive: 0.562
52 | GGAGAUCUGCCAGUGGAAATT against 2010319C14Rik | inactive: -0.175

3 entries from above, field by field:
GGGCCUAUGUGCUUUAUAUTT against Usp8
  z-score: inactive: -2.31
GGAUUCUGAAGAAAACGGGTT against Ibsp
  z-score: inactive: 0.482
CCUACUCUCUCGUAGACUCTT against MGC69750
  z-score: inactive: -1.37

Later entries.

Row | Sequence | z-score
53 | GGGAGAGUCAAAAAAAGAUTT against Khdrbs1 | active: 2.83
54 | UCGAUAGCCUCAAUCAGCATT against A530094I17Rik | inactive: -0.369
55 | CUGAAACAUCCGUACACUCTT against Svs3 | inactive: -0.95
56 | GGUUUACGAAUUCUAUCCATT against AI841794 | inactive: 2.32
57 | GCUUUUGAUCGCAAUACAGTT against Spag9 | inactive: 0.0872
58 | CGAAGUGACUGGAAAAAAATT against Wbp2 | inactive: -1.37
59 | AGUGUAACUGCAGAAGCCUTT against Olfr207 | inactive: 1.07
60 | GGAACACCGAACAUAAAUATT against Gm610 | inactive: -0.526
61 | GGAACUGUUUGACAGUGAGTT against Pex19 | inactive: -1.84
62 | GUGAAGAAAGUCAUCAAGATT against Olfr1506 | inactive: 1.78
63 | GGAGUGCACUGCAUCAUGUTT against 2810417J12Rik | inactive: 0.846
64 | GGUUUUUAAGUGAUCCUUUTT against 6030443O07Rik | inactive: 0.277
65 | GGAUUUUGUUCUUCAUCCATT against Nedd4 | inactive: 0.00914
66 | GCCAUAAUAAUCAAUGUGATT against Galm | inactive: 0.0141
67 | CAGCAUCUUUGAUUGUCUGTT against Tssc4 | inactive: 0.302
68 | GCACAUUUAACCAAAAAGCTT against 2310011G06Rik | inactive: 0.148
69 | GUGAAGACAUCAGCAGACUTT against 0610012D14Rik | inactive: -1.49
70 | GGUACAAACGUGUAGUAUCTT against E130306I01Rik | inactive: 1.01
71 | GGUAACAAGAGGUCUAGCATT against P2ry1 | inactive: 1.22
72 | GCAGUAAAAUGACAUUUGGTT against 1700027J05Rik | inactive: -0.144
73 | CCCUUGUACAAUAAUAAAGTT against 2010100O12Rik | inactive: 1.27
74 | GCUUUCAUGUCCUAAAGAATT against 4921504E06Rik | inactive: -1.19
75 | GCCGUUUACGUUUAUUGUUTT against Cutl2 | inactive: -0.0904
76 | CCUGGUGCAUGCUUUAAUATT against Kynu | inactive: 0.892
77 | GCCACUUACACUUACUUGATT against Olfr1331 | inactive: 1.17
78 | CCAUCUACGAUCAAGAGAATT against Cryba1 | inactive: -0.711

Row | Sequence | z-score
79 | GGAAUGUGCUCAUUUUUGATT against Hspa8 | inactive: -3.09
80 | GGAUUUCUUCAAGUCCUUGTT against Scgb1a1 | inactive: 0.357
81 | GGCCAUAUUGGAGCAAAUCTT against Nppa | inactive: -1.6
82 | GGUCCUAAAAAACUGAGCUTT against Frag1 | inactive: 0.859
83 | GAGAAACACCAUCUCCUAUTT against Olfr502 | inactive: 0.515
84 | GCAGGUGCCUUCAAAAACCTT against Gm424 | inactive: 2
85 | CCUGAUCUGUGGCACGGAUTT against Spink4 | inactive: -1.17
86 | GGAUGAAGUGCUAAUAGGATT against ORF9 | inactive: -0.0918
87 | GCUUUGAGAACCUUGGUAATT against Rab9b | inactive: -1.02
88 | GGAUAGUGAAGUCAUUGAATT against 2610016F04Rik | inactive: -0.0186
89 | GGUGAAGGUCAGCAAAGAATT against Exosc5 | inactive: -1.08
90 | CCUACAGCGAGCUAUUUCATT against Epc2 | inactive: -1.53
91 | GCAACUGUACACUAGAUACTT against Tes3 | inactive: -0.32
92 | CGAAUGUGGCUAUGACCUGTT against Kif6 | inactive: -0.204
93 | GGGCAUGUUCACCAUCAGATT against Sec1 | inactive: 1.43
94 | GCCUCUUUUCACACUUAAATT against Olfr608 | inactive: 0.235
95 | GGGUCAAUCUAAAUAUGUGTT against 0610008C08Rik | inactive: -0.201
96 | GGAUAUGGACUAUUCACGGTT against Dgat1 | inactive: 0.949
97 | CCCAGCAUACCAUCUCUACTT against Arhgef1 | inactive: -0.132
98 | GGAACUGAAUGCUCUUCCATT against Msln | inactive: 1.47
99 | GGUGGUAGUUUAUGAUCAATT against Dusp16 | inactive: -1.72
100 | AAACUUGGCGUAUCAGGAATT against LOC544988 | inactive: -0.337
101 | GGCAAAGGCACUGUCAGUGTT against BC013672 | inactive: -0.289
102 | GCACAGGUCUAAUUCGUCUTT against Grik1 | inactive: -0.209
103 | GCCGAUGAAGACCUUAGUCTT against 4933433C09Rik | inactive: 0.383
